Experimental data: PubChem BioAssay AID652272 (Drosophila RNAi Screening Center, 2013)

- Purpose: 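Genes whose knock-down decreases or increases Hedgehog reporter output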 (primary screen)
- Cells: Drosophila clone 8 (Cl8) cells
- Knock-down reagent: long dsRNA against Drosophila genes
- Measured: 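Plate reader light from a firefly reporter under a ptc promoter fragment that responds to Hedgehog, with Renilla light as transfection reference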
- Reading the numbers: firefly Hh reporter signal: higher = more ptc reporter light; Renilla reference signal: higher = more Renilla control light
- Call rule: 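Hit when the z-score averaged over two replicates is under -2 or over +3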
- Calls: active = hit: reporter lowered or raised; inactive = not a hit
The deposit covers about 21,000 reagents; shown is an unselected part of those that have a named target and a result. Of all reagents, 503 (2.4%) got an active call. 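Raw plate light values, not normalised; calls rest on replicate z-scores that were not deposited; hits include reporter decreases as well as increases.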 Not stated in the record: the amount of reagent, the time to read-out.

| predicted target | DRSC id | firefly Hh reporter signal, replicate 1 | firefly Hh reporter signal, replicate 2 | firefly Hh reporter signal, replicate 3 | Renilla reference signal, replicate 1 | Renilla reference signal, replicate 2 | call |
| --- | --- | --- | --- | --- | --- | --- | --- |
| shn (GeneID 36171) | DRSC05266 | 1.38e5 | 2.99e5 | – | 3952 | 13030 | inactive |
| shn (GeneID 36171) | DRSC07681 | 69958 | 73973 | – | 2916 | 2630 | inactive |
| Hakai (GeneID 35256) | DRSC02031 | 86295 | 65493 | – | 3802 | 2994 | inactive |
| f-cup (GeneID 41677) | DRSC14139 | 1.51e5 | 1.22e5 | – | 5229 | 4245 | inactive |
| Gasp (GeneID 40745) | DRSC12349 | 1.33e5 | 74496 | – | 4784 | 2888 | inactive |
| eEF1gamma (GeneID 44791) | DRSC16659 | 45828 | 44833 | – | 1652 | 2169 | inactive |
| TfAP-2 (GeneID 40398) | DRSC11601 | 88054 | 1.18e5 | – | 2944 | 3064 | inactive |
| CG43125 (GeneID 12798281) | DRSC13866 | 65157 | 4.14e5 | – | 15110 | 9184 | inactive |
| Drep1 (GeneID 36290) | DRSC07527 | 83315 | 46181 | – | 1664 | 3213 | inactive |
| CG11362 (GeneID 37574) | DRSC04106 | 1.23e5 | 92256 | – | 2344 | 8248 | inactive |
| MED19 (GeneID 39987) | DRSC10516 | 94871 | 40437 | – | 3932 | 2204 | inactive |
| Octbeta3R (GeneID 3885573) | DRSC15351 | 56957 | 85810 | – | 2375 | 2290 | inactive |
| Octbeta3R (GeneID 3885573) | DRSC16191 | 80521 | 72048 | – | 2233 | 2036 | inactive |
| IntS12 (GeneID 43227) | DRSC15818 | 80665 | 1.06e5 | – | 2928 | 3346 | inactive |
| CG10584 (GeneID 40324) | DRSC11624 | 1.18e5 | 1.63e5 | – | 4053 | 4950 | inactive |
| CG43707 (GeneID 33601) | DRSC00280 | 2.07e5 | 74243 | – | 4716 | 7771 | inactive |
| CG3408 (GeneID 39107) | DRSC10360 | 12496 | 41273 | 46044 | 5136 | 3830 | inactive |
| Rack1 (GeneID 34070) | DRSC03405 | 1.17e5 | 40759 | – | 3461 | 5223 | inactive |
| CG13074 (GeneID 39760) | DRSC09957 | 1.78e5 | – | – | 5875 | 4736 | inactive |
| CG11099 (GeneID 37282) | DRSC06034 | 1.21e5 | 67260 | – | 3367 | 5904 | inactive |
| CG10307 (GeneID 37477) | DRSC04057 | 79721 | 53456 | – | 3010 | 2194 | inactive |
| tim (GeneID 33571) | DRSC00841 | 84538 | 60408 | – | 4108 | 2720 | inactive |
| CG17637 (GeneID 40275) | DRSC11740 | 97040 | 77408 | – | 3232 | 2204 | inactive |
| mei-W68 (GeneID 2768853) | DRSC07649 | 58251 | 67414 | – | 1467 | 4317 | inactive |
| CG41099 (GeneID 3355072) | DRSC21049 | 45046 | 1.79e5 | – | 550 | 7504 | inactive |
| CG41099 (GeneID 3355072) | DRSC21051 | 59337 | 1.89e5 | – | 1191 | 7840 | inactive |
| CG4887 (GeneID 33304) | DRSC00670 | 1.64e5 | 1.56e5 | – | 4069 | 4001 | inactive |
| CG33177 (GeneID 32438) | DRSC19949 | 70736 | 2.09e5 | – | 2465 | 9304 | inactive |
| cpx (GeneID 64877) | DRSC11999 | 2.61e5 | – | – | 5666 | – | inactive |
| Prim2 (GeneID 44915) | DRSC11610 | 1.14e5 | 65483 | – | 4165 | 2720 | inactive |
| Hug (GeneID 41547) | DRSC16969 | 1.07e5 | 1.24e5 | – | 2753 | 2979 | inactive |
| CG9030 (GeneID 32427) | DRSC20139 | 86004 | 1.93e5 | – | 1810 | 8417 | inactive |
| CG16723 (GeneID 42781) | DRSC15138 | 4.34e5 | 87817 | – | 22948 | 2872 | inactive |
| Acsx4 (GeneID 42355) | DRSC14311 | 5.80e5 | 72680 | – | 27920 | 2112 | inactive |
| CG13926 (GeneID 38192) | DRSC08395 | 59319 | 40381 | – | 2156 | 3393 | inactive |
| CG6296 (GeneID 43246) | DRSC16013 | 66609 | 96972 | – | 1675 | 2924 | inactive |
| CG13078 (GeneID 35251) | DRSC02182 | 70268 | 43686 | – | 1865 | 4007 | inactive |
| Timp (GeneID 41248) | DRSC17082 | 1.55e5 | 93990 | – | 5959 | 3634 | inactive |
| COX5B (GeneID 33918) | DRSC02115 | 1.06e5 | 73940 | – | 2131 | 6236 | inactive |
